The source of these data is US20070129288A1 (BAYER HEALTHCARE AG, priority 2002, published 2007).

The data set is described as follows: general procedure: solution-phase peptide synthesis; HATU / N,N-diisopropylethylamine. As to conditions: late stage modification step, dihydrochloride.

For the substance “N-{[(8S,11S,14S)-14-Amino-11-[(2R)-3-amino-2-hydroxypropyl]-5,17-dihydroxy-10,13-dioxo-9,12-diazatricyclo[14.3.1.1^2,6]henicosa-1(20),2(21),3,5,16,18-hexaen-8-yl]carbonyl}-L-phenylalanine dihydrochloride”, the step yield is on record as 28% of theory.
